Taken from: PubChem BioAssay AID504744 (Drosophila RNAi Screening Center, 2011)
The deposit covers about 23,000 reagents; shown is an unselected part of those that have a named target and a result. Of all reagents, 98 (0.43%) got an active call. 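Only hit calls are given; the phospho-dAkt signals, z-scores and hit direction were not deposited.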 The numbers tell different reagents against one gene apart. A plus sign joins genes that one reagent is predicted to hit.

Aim: 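Uncover factors, including feedback loops, that control dAkt activation in fly cells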 (primary screen)
Cell system: Drosophila Kc167 cells
Reagent: long dsRNA against Drosophila genes, 250 ng dsRNA per well of a 384-well plate
Timing: 3 days of knock-down, then overnight serum-free starvation before stimulation
Treatment: bovine insulin at 387 nM for 10 minutes after 12 h without serum
Detection: 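Per-well phospho-dAkt level from an in-cell fluorescent antibody stain, divided by a DNA-dye signal; log2 residuals turned into z-scores that take cell number into account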
Call rule: 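Hit in the insulin screen when the two-replicate mean z-score is more extreme than plus or minus 2.5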

| target gene | reagent no. | Call |
| --- | --- | --- |
| CG15443 (GeneID 33656) | 1 | inactive |
| TP53INP (GeneID 38543) | 1 | inactive |
| TP53INP (GeneID 38543) | 2 | inactive |
| CG13829 (GeneID 42740) | 1 | inactive |
| Kcmf1 (GeneID 41082) | 1 | inactive |
| Tob (GeneID 32574) | 1 | inactive |
| stau (GeneID 37065) | 1 | inactive |
| mRpL46 (GeneID 38230) | 1 | inactive |
| abd-A (GeneID 42037) | 1 | inactive |
| abd-A (GeneID 42037) | 2 | inactive |
| endos (GeneID 39554) | 1 | inactive |
| CG30287 (GeneID 246530) | 1 | inactive |
| Pgant35A (GeneID 48775) | 1 | inactive |
| CG31677 (GeneID 318880) | 1 | inactive |
| Nup62 (GeneID 36830) | 1 | inactive |
| CG14829 (GeneID 38792) | 1 | inactive |
| CG12826 (GeneID 35710) | 1 | inactive |
| phu (GeneID 41135) | 1 | inactive |
| CG30159 (GeneID 35611) | 1 | inactive |
| Tusp (GeneID 43317) | 1 | inactive |
| CG17221 (GeneID 33521) | 1 | inactive |
| CG14277 (GeneID 34129) | 1 | inactive |
| RpS8 (GeneID 43532) | 1 | inactive |
| RAF2 (GeneID 39821) | 1 | inactive |
| RAF2 (GeneID 39821) | 2 | inactive |
| bigmax (GeneID 43293) | 1 | inactive |
| nbs (GeneID 44259) | 1 | inactive |
| Ir7b (GeneID 31690) | 1 | inactive |
| CG11584 (GeneID 32363) | 1 | inactive |
| PIG-O (GeneID 37118) | 1 | inactive |
| CG12493 (GeneID 38575) | 1 | inactive |
| Abl (GeneID 45821) | 1 | inactive |
| SCCRO4 (GeneID 40231) | 1 | inactive |
| hob (GeneID 38395) | 1 | inactive |
| tara (GeneID 53562) | 1 | inactive |
| beat-IV (GeneID 42778) | 1 | inactive |
| beat-IV (GeneID 42778) | 2 | inactive |
| l(2)dtl (GeneID 46326) | 1 | inactive |
| SNF4Agamma (GeneID 42515) | 1 | inactive |
| SNF4Agamma (GeneID 42515) | 2 | inactive |
| SNF4Agamma (GeneID 42515) | 3 | inactive |
| SNF4Agamma (GeneID 42515) | 4 | active |
| tctn + B9d2 | 1 | inactive |
| mst (GeneID 33119) | 1 | inactive |
| CG42372 + CG30100 | 1 | inactive |
| Piezo (GeneID 34112) | 1 | inactive |
| Acbp4 (GeneID 38781) | 1 | inactive |
| inv (GeneID 36239) | 1 | inactive |
| CG13038 (GeneID 50268) | 1 | inactive |
| CG6839 (GeneID 40067) | 1 | inactive |
| Blimp-1 (GeneID 38638) | 1 | inactive |
| Rpn10 (GeneID 40388) | 1 | inactive |
| Kap3 (GeneID 32071) | 1 | inactive |
| Akr1B (GeneID 39304) | 1 | inactive |
| CG10376 (GeneID 35126) | 1 | inactive |
| Srg1 (GeneID 42969) | 1 | inactive |
| CG13978 (GeneID 43303) | 1 | inactive |
| Rbp4 (GeneID 41668) | 1 | inactive |
| CAH9 (GeneID 43264) | 1 | inactive |
| CG31802 (GeneID 318949) | 1 | inactive |
| qtc (GeneID 33739) | 1 | inactive |
| qtc (GeneID 33739) | 2 | inactive |
| CG42269 (GeneID 38689) | 1 | inactive |
| CG42269 (GeneID 38689) | 2 | inactive |
| ppk6 (GeneID 37286) | 1 | inactive |
| CG15561 (GeneID 43692) | 1 | inactive |
| Nup93-2 (GeneID 41804) | 1 | inactive |
| nonC (GeneID 31625) | 1 | inactive |
| nonC (GeneID 31625) | 2 | inactive |
| CG31633 (GeneID 33931) | 1 | inactive |
| Nlp (GeneID 43560) | 1 | inactive |
| l(3)73Ah (GeneID 48903) | 1 | inactive |
| SP1029 (GeneID 53473) | 1 | inactive |
| CG16853 (GeneID 34771) | 1 | inactive |
| CG18870 (GeneID 59218) | 1 | inactive |
| CG5399 (GeneID 41900) | 1 | inactive |
| L2HGDH (GeneID 35156) | 1 | inactive |
| CG15482 (GeneID 34717) | 1 | inactive |
| Mrm2 (GeneID 42359) | 1 | inactive |
| Ent3 (GeneID 39461) | 1 | inactive |
| CG6700 (GeneID 34496) | 1 | inactive |
| Obp93a (GeneID 42506) | 1 | inactive |
| clu (GeneID 36793) | 1 | inactive |
| CG18210 (retired record) (GeneID 32469) | 1 | inactive |
| CG18210 (retired record) (GeneID 32469) | 2 | inactive |
| RhoL (GeneID 41136) | 1 | inactive |
| Mur2B (GeneID 31111) | 1 | inactive |
| Mur2B (GeneID 31111) | 2 | inactive |
| Dop2R (GeneID 33007) | 1 | inactive |
| Dop2R (GeneID 33007) | 2 | inactive |
| Gmppa (GeneID 36730) | 1 | inactive |
| Pka-C1 (GeneID 34284) | 1 | inactive |
| Lcp65Ag3 + Lcp65Ag2 + Lcp65Ag1 | 1 | inactive |
| Lcp65Ag3 + Lcp65Ag2 + Lcp65Ag1 | 2 | inactive |
| yps (GeneID 39377) | 1 | inactive |
| CG11786 (GeneID 42998) | 1 | inactive |
| CheB42a (GeneID 2768721) | 1 | inactive |
| be (GeneID 32430) | 1 | inactive |
| be (GeneID 32430) | 2 | inactive |
| be (GeneID 32430) | 3 | inactive |
| CG17300 (GeneID 39489) | 1 | inactive |
| smp-30 (GeneID 41786) | 1 | inactive |
| CG8314 (GeneID 36757) | 1 | inactive |
| Dnah3 (GeneID 38586) | 1 | inactive |
| Dnah3 (GeneID 38586) | 2 | inactive |
| CG10298 (GeneID 40779) | 1 | inactive |
| CG10959 (GeneID 31743) | 1 | inactive |
| snu (GeneID 43391) | 1 | inactive |
| Mco3 (GeneID 43134) | 1 | inactive |
| CG3199 (GeneID 41725) | 1 | inactive |
| frac (GeneID 38850) | 1 | inactive |
| CG11099 (GeneID 37282) | 1 | inactive |
| Secp43 (GeneID 33652) | 1 | inactive |
| CG9368 (GeneID 40135) | 1 | inactive |
| sip2 (GeneID 33979) | 1 | inactive |
| CG14785 (GeneID 31094) | 1 | inactive |
| CG16753 (GeneID 38365) | 1 | inactive |
| salm (GeneID 34569) | 1 | inactive |
| brp (GeneID 35977) | 1 | inactive |
| brp (GeneID 35977) | 2 | inactive |
| brp (GeneID 35977) | 3 | inactive |
| brp (GeneID 35977) | 4 | inactive |
| trc (GeneID 40165) | 1 | inactive |
| CG31816 (GeneID 318960) | 1 | inactive |
| CG32568 (GeneID 32659) | 1 | inactive |
| CG10910 (GeneID 37052) | 1 | inactive |
| CG8675 (GeneID 32716) | 1 | inactive |
| CG7352 (GeneID 40997) | 1 | inactive |
| CG9308 (GeneID 37507) | 1 | inactive |
| AstC-R1 (GeneID 40020) | 1 | inactive |
| CG12065 (GeneID 31798) | 1 | inactive |
| CG12065 (GeneID 31798) | 2 | inactive |
| CG12325 (GeneID 36144) | 1 | inactive |
| lmd (GeneID 42717) | 1 | inactive |
| CG13720 (GeneID 38557) | 1 | inactive |
| CG18417 (GeneID 38829) | 1 | inactive |
| CG14073 (GeneID 40046) | 1 | inactive |
| knon (GeneID 36845) | 1 | inactive |
| Polr2I (GeneID 41741) | 1 | inactive |
| CG1409 (GeneID 31689) | 1 | inactive |
| asl (GeneID 40682) | 1 | inactive |
| Pkd2 (GeneID 34651) | 1 | inactive |
| eEF1delta (GeneID 34363) | 1 | inactive |
| CG10317 (GeneID 41987) | 1 | inactive |
| HLH4C (GeneID 31397) | 1 | inactive |
| HLH4C (GeneID 31397) | 2 | inactive |
| Acp24A4 (GeneID 318936) | 1 | inactive |
| Cpr56F (GeneID 37299) | 1 | inactive |
| GPHR (GeneID 36682) | 1 | inactive |
| dpr4 (GeneID 3346160) | 1 | inactive |
| dpr4 (GeneID 3346160) | 2 | inactive |
| CG15251 (retired record) (GeneID 31930) | 1 | inactive |
| Alp8 (GeneID 37540) | 1 | inactive |
| CG32633 (GeneID 326225) | 1 | inactive |
| Cp7Fc (GeneID 31786) | 1 | inactive |
| CG5274 (GeneID 40257) | 1 | inactive |
| CG32576 (GeneID 318095) | 1 | inactive |
